{"source": "PubChem BioAssay AID1259425, University of Nebraska Medical Center, 2018", "aim": "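Compare each knockdown with KSR1 silencing using changes in marker transcripts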 (primary screen)", "cell system": "HCT116 human colon cancer cells", "knock-down reagent": "siRNA pool against human genes, 50 nM siRNA", "measurement": "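After 50 nM siRNA pool, branched-DNA assay measures six marker transcripts per well, minus blank, normalised to the geometric mean of two housekeeping transcripts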", "scale": "BNIP3L mRNA: higher = more BNIP3L transcript after knockdown; NDRG1 mRNA: higher = more NDRG1 transcript after knockdown", "note": "In all, the deposit lists about 14,000 reagents; this is a part drawn at random. Further read-outs or replicates are left out here. The record does not give: the time to read-out."}
{"Gene": "KCNJ15", "BNIP3L mRNA, set 1": 0.0625, "NDRG1 mRNA, set 1": 0.0703}
{"Gene": "OXCT2", "BNIP3L mRNA, set 1": 0.0635, "NDRG1 mRNA, set 1": 0.146}
{"Gene": "COL10A1", "BNIP3L mRNA, set 1": 0.417, "NDRG1 mRNA, set 1": 1}
{"Gene": "HSPA6", "BNIP3L mRNA, set 1": 0.158, "NDRG1 mRNA, set 1": 0.0355}
{"Gene": "CHCHD5", "BNIP3L mRNA, set 1": 0.26, "NDRG1 mRNA, set 1": 0.192}
{"Gene": "SREBF2", "BNIP3L mRNA, set 1": 0.111, "NDRG1 mRNA, set 1": 0.143}
{"Gene": "WDR4", "BNIP3L mRNA, set 1": 0.376, "NDRG1 mRNA, set 1": 2.09}
{"Gene": "OVGP1", "BNIP3L mRNA, set 1": 0.0823, "NDRG1 mRNA, set 1": 0.228}
{"Gene": "LSS", "BNIP3L mRNA, set 1": 0.142, "NDRG1 mRNA, set 1": 0.163}
{"Gene": "ARPC4", "BNIP3L mRNA, set 1": 0.16, "NDRG1 mRNA, set 1": 0.223}
{"Gene": "TMEM161A", "BNIP3L mRNA, set 1": 0.124, "NDRG1 mRNA, set 1": 0.325}
{"Gene": "GPATCH1", "BNIP3L mRNA, set 1": 0.221, "NDRG1 mRNA, set 1": 0.71}
{"Gene": "PREB", "BNIP3L mRNA, set 1": 0.102, "NDRG1 mRNA, set 1": 0.0987}
{"Gene": "ADPRS", "BNIP3L mRNA, set 1": 0.181, "NDRG1 mRNA, set 1": 0.256}
{"Gene": "HSFX1", "BNIP3L mRNA, set 1": 0.0635, "NDRG1 mRNA, set 1": 0.164}
{"Gene": "CD9", "BNIP3L mRNA, set 1": 0.0894, "NDRG1 mRNA, set 1": 0.0716}
{"Gene": "PHYKPL", "BNIP3L mRNA, set 1": 0.0987, "NDRG1 mRNA, set 1": 0.359}
{"Gene": "ATL2", "BNIP3L mRNA, set 1": 0.165, "NDRG1 mRNA, set 1": 0.268}
{"Gene": "KLRC3", "BNIP3L mRNA, set 1": 0.168, "NDRG1 mRNA, set 1": 0.0791}

Looked up above:
Entry of GPATCH1 under “NDRG1 mRNA, set 1”: 0.71
KCNJ15, NDRG1 mRNA, set 1 → 0.0703
